Laboratory results published in article PMC8015000, “FYN and ABL Regulate the Interaction Networks of the DCBLD Receptor Family” (Molecular & Cellular Proteomics : MCP, 2020).
Like-named read-outs stand apart in the source and are kept apart here. No constants are given. Whether binding was seen depends on the method and setting. In cells and extracts the contact can be indirect. Here binding means that the protein was enriched with, or labelled near, the bait; the list need not be complete. Where a sequence is shown, tags or fusion partners need not be part of it. Blank lines part the entries; values can stand above or below the molecule they belong to.

By UniProt entry, the sequences of proteins in these tests, tags left out. Residues count along the entry.
UniProt P31946: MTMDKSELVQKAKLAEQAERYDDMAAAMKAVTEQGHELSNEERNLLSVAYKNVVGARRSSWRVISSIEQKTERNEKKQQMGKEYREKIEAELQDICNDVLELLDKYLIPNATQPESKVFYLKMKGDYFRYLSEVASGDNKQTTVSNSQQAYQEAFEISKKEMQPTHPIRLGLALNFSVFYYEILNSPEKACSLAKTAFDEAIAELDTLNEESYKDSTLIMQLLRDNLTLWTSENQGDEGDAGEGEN
UniProt P62258: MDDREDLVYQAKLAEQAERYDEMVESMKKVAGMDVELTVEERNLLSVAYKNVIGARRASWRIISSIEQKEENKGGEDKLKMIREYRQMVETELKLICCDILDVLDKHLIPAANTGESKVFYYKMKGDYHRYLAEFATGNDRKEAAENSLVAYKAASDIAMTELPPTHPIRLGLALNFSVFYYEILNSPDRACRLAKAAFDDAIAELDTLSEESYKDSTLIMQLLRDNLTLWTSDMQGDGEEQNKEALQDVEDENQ
UniProt P63104: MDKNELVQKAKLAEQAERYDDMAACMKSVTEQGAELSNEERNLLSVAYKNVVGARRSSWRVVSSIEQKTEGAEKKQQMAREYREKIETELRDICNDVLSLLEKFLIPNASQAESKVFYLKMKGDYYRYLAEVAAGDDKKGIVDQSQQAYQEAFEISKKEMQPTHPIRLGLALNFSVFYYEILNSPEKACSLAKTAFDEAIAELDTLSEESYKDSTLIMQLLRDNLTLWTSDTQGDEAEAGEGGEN
UniProt O00507: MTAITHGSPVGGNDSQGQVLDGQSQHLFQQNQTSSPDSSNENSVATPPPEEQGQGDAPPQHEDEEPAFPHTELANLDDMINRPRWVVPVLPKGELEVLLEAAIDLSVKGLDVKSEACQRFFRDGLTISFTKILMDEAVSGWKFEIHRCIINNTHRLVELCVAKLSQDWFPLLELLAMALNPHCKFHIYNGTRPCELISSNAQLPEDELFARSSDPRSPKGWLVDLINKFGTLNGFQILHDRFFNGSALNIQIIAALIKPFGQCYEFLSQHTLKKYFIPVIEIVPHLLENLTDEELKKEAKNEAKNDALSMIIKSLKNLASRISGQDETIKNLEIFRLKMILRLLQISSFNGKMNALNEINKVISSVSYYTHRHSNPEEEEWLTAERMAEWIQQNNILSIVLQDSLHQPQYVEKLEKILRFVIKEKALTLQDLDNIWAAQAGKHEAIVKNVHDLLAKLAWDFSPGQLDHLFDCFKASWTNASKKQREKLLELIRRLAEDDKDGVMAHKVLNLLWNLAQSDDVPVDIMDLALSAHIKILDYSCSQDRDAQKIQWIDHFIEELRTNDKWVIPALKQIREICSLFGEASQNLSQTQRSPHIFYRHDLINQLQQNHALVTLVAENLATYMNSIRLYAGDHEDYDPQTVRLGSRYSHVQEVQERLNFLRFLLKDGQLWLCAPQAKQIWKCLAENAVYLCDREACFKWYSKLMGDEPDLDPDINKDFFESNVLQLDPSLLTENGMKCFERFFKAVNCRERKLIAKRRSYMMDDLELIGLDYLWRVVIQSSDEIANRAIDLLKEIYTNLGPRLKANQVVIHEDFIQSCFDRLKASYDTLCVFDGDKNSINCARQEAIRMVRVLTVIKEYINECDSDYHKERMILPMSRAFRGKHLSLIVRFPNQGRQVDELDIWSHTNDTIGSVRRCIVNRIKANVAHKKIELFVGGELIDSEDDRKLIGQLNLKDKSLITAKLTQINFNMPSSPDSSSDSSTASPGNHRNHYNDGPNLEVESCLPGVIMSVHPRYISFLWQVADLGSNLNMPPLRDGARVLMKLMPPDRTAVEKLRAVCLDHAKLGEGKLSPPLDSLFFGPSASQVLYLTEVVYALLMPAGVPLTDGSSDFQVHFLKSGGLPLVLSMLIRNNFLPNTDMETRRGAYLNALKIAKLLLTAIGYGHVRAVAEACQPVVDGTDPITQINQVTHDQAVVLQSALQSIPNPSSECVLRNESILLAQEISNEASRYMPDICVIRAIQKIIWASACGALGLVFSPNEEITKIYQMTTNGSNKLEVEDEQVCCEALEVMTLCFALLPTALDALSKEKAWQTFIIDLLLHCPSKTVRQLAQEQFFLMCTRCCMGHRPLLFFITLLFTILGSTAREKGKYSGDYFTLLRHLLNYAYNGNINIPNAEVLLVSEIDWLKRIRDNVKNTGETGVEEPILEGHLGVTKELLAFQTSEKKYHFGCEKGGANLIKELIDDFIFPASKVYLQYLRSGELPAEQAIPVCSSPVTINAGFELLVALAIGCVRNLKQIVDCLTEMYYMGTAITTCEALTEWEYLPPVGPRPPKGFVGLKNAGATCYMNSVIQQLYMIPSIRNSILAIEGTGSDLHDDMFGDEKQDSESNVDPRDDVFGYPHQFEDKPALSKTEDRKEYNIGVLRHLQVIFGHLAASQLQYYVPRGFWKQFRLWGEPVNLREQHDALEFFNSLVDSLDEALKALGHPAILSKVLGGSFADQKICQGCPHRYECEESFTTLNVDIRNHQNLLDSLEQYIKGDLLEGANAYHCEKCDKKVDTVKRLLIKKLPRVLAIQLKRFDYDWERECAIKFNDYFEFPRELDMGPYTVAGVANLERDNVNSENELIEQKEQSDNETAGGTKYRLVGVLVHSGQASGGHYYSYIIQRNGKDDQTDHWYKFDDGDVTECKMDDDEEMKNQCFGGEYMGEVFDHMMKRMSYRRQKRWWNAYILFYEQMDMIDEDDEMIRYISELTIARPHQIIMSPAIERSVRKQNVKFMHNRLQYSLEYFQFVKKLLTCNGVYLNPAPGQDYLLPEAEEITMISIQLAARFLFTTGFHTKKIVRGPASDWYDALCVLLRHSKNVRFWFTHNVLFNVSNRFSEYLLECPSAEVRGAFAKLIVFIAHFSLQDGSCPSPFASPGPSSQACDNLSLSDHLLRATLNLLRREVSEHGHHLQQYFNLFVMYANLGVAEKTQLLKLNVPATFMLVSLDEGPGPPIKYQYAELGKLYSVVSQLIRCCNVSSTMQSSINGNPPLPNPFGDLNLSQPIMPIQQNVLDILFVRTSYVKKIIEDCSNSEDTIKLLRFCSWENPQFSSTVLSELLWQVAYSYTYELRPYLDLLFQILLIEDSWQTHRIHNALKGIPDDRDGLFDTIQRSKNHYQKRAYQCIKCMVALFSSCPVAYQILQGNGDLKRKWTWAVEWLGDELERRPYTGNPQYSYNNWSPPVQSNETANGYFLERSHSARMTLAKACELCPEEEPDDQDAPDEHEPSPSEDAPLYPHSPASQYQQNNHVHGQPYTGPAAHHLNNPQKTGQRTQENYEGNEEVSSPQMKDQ
UniProt P46109: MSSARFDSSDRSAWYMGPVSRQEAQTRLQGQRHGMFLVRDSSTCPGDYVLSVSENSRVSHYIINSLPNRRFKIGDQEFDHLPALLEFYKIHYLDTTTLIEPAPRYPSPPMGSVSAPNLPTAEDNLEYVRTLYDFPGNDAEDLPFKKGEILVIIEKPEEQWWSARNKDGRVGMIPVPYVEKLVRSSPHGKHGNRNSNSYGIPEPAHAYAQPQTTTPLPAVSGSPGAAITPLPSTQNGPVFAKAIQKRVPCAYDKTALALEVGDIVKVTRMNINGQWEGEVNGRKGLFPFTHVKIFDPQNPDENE
UniProt P46108: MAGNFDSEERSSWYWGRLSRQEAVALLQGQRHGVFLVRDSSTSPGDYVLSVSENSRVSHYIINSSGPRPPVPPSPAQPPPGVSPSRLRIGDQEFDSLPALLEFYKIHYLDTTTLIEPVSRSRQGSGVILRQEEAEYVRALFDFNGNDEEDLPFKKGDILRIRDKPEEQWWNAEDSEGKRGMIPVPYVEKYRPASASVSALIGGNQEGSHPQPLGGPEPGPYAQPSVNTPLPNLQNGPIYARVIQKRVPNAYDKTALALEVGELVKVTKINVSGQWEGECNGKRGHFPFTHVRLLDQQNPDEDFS
UniProt P06241: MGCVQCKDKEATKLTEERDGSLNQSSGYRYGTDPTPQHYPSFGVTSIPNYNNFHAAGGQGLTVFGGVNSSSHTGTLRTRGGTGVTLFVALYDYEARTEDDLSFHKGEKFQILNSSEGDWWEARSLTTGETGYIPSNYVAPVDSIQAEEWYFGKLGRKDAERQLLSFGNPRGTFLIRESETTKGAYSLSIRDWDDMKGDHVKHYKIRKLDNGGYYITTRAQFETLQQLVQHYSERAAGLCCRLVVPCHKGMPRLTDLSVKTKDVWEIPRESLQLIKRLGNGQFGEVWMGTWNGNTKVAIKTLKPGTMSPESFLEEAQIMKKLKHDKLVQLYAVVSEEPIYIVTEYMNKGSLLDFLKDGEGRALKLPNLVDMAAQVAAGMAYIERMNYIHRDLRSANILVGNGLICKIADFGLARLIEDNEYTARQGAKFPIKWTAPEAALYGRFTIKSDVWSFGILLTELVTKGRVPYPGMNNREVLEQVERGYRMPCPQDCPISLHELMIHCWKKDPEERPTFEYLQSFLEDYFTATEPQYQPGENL
UniProt Q9NYU2, residues 43-1555: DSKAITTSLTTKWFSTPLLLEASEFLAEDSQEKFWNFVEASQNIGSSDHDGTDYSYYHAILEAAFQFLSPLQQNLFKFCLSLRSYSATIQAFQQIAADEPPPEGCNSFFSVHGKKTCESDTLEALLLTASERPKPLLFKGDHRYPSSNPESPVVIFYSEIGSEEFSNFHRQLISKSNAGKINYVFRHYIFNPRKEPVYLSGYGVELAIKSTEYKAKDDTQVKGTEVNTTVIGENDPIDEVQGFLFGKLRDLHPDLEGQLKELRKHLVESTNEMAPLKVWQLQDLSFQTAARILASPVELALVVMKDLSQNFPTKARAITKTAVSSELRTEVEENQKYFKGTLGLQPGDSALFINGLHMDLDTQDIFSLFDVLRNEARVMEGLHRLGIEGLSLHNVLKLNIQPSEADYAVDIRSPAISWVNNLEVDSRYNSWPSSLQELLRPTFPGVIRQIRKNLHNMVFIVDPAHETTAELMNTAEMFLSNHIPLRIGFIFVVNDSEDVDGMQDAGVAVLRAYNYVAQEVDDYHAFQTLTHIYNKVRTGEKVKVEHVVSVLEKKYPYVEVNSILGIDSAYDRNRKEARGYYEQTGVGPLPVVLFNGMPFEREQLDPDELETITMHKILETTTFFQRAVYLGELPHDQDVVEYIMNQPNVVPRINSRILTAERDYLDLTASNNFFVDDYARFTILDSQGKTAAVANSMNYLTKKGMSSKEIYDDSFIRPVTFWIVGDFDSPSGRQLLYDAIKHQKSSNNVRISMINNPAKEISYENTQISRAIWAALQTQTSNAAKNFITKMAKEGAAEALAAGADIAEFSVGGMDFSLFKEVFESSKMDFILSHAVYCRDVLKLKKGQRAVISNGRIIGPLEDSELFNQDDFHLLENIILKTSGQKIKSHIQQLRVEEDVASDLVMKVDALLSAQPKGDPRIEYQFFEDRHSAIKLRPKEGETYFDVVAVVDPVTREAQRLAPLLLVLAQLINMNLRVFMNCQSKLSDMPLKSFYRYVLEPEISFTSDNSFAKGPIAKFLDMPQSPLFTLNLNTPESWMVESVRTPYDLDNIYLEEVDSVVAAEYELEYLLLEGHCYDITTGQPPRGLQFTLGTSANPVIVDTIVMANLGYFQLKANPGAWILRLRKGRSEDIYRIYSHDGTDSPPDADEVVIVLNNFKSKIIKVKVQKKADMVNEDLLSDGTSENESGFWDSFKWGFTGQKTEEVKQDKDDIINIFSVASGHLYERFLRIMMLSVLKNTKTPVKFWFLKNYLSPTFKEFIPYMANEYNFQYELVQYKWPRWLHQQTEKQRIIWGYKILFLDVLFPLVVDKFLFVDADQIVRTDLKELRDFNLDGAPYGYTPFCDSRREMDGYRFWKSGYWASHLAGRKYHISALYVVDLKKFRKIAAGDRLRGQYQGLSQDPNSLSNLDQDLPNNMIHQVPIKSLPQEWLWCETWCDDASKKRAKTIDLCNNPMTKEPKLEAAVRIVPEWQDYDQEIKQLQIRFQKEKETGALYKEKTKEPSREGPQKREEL
UniProt P27824, residues 21-592: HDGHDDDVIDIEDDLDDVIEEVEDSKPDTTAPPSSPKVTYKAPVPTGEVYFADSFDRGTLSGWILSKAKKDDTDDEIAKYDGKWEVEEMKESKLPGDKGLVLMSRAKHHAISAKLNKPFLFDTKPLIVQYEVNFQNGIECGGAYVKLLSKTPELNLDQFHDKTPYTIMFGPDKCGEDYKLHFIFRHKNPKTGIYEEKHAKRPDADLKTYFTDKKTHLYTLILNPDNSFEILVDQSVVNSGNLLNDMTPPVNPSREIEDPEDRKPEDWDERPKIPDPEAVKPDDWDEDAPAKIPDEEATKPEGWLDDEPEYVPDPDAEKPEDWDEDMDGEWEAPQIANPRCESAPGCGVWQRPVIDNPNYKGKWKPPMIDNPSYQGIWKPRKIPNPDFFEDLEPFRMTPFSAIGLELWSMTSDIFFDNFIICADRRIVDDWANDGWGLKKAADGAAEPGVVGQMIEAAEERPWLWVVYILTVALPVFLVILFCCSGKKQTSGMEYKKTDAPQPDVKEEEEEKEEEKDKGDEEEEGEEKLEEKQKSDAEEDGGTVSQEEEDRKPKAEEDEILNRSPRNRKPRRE

Assays:
[1] = target: T1, DCBLD2-FLAG-MYC (full-length human Discoidin, CUB, and LCCL domain-containing protein 2) (human) (UniProt Q96PD2); experiment: affinity purification with mass spectrometry; SILAC; alpha-FLAG Affinity Gel immunoprecipitation of DCBLD1-FLAG or DCBLD2-FLAG from transfected HEK 293 lysates (BCLB, overnight, 4 C), expressed alone (light) or with ABL or FYN (heavy; FYN with DCBLD2 only); SDS-PAGE, tryptic digest, LC-MS/MS; three biological replicates; proteins found in mock, ABL-alone and FYN-alone controls removed
T1 sequence: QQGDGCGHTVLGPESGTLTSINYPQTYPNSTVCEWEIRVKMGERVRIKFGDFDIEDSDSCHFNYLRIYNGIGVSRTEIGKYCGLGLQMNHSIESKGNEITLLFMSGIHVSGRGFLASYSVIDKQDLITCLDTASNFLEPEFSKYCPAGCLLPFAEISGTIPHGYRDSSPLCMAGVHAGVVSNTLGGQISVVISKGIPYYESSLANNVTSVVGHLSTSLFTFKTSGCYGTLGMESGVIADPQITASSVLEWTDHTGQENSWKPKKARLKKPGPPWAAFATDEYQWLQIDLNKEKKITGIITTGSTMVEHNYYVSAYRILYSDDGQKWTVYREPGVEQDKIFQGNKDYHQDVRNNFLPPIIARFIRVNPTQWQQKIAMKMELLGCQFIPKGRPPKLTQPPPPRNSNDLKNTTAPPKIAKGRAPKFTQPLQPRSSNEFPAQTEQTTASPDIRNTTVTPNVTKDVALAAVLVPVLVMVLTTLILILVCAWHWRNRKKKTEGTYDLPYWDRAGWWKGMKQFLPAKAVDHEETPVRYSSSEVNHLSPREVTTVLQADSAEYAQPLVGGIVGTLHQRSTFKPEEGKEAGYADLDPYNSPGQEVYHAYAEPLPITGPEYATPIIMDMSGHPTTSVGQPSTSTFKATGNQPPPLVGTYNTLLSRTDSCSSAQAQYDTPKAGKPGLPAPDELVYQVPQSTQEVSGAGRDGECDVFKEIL

[2] = target: T2, DCBLD1-MYC-FLAG (human Discoidin, CUB, and LCCL domain-containing protein 1) (human) (UniProt Q8N8Z6); experiment: as above
T2 sequence: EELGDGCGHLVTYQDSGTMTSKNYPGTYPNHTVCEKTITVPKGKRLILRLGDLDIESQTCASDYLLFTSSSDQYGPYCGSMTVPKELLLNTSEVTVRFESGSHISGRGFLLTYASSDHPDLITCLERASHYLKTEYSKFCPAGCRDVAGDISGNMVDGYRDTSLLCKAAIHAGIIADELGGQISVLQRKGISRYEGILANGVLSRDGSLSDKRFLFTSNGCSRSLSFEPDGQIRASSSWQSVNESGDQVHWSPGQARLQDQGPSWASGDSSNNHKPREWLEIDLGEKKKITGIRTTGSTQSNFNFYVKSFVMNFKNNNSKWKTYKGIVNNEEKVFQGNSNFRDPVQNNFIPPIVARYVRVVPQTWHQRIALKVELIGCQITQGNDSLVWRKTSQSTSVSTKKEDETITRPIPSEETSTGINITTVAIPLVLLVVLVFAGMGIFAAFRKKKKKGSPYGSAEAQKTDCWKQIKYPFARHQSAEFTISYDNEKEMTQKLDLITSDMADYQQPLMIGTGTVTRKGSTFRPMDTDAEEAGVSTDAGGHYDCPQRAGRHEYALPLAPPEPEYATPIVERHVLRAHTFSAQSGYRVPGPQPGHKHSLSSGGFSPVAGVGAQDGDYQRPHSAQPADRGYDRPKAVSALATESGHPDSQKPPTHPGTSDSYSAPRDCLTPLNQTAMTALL

[3] = target: T1, DCBLD2-FLAG-MYC (full-length human Discoidin, CUB, and LCCL domain-containing protein 2) (human); experiment: affinity purification with mass spectrometry; FLAG-tagged DCBLD2 immunoprecipitated from HEK cells expressing DCBLD2 alone or with ABL, immune complexes washed three times with BCLB and incubated with adult zebrafish extracts overnight; SDS-PAGE, LC-MS/MS; peptides unique to zebrafish extracted; the resin also carries co-precipitated human proteins; only the target purified
[4] = target: T2, DCBLD1-MYC-FLAG (human Discoidin, CUB, and LCCL domain-containing protein 1) (human); experiment: affinity purification with mass spectrometry; SILAC; alpha-FLAG Affinity Gel immunoprecipitation of DCBLD1-FLAG or DCBLD2-FLAG from transfected HEK 293 lysates (BCLB, overnight, 4 C), expressed alone (light) or with ABL or FYN (heavy; FYN with DCBLD2 only); SDS-PAGE, tryptic digest, LC-MS/MS; three biological replicates; proteins found in mock, ABL-alone and FYN-alone controls removed; remark: listed apart in the source
[5] = target: T1, DCBLD2-FLAG-MYC (full-length human Discoidin, CUB, and LCCL domain-containing protein 2) (human); experiment: as above; remark: listed apart in the source

binding [1]: binds
Molecule: 14-3-3β (endogenous) (from UniProt P31946 1-246)

binding [2]: binds
binding [1]: binds
Molecule: 14-3-3ε (endogenous) (from UniProt P62258 1-255)

binding [1]: binds
Molecule: 14-3-3ζ (endogenous) (from UniProt P63104 1-245)

binding [2]: binds
Molecule: C-terminal ubiquitin hydrolase FAF-Y (USP9Y) (from UniProt O00507 1-2555) (enzyme)

binding [2]: binds
binding [1]: binds
Molecule: CRK-like (CRKL) (from UniProt P46109 1-303)

binding [2]: binds
binding [1]: binds
Molecule: CT10 regulator of kinase (CRK) (from UniProt P46108 1-304)

binding [2]: binds
binding [1]: binds
Molecule: Ca2+/calmodulin-dependent protein kinase type-II β (CaMK-IIβ) (from UniProt Q13554 1-666) (enzyme)

binding [2]: binds
binding [1]: binds
Molecule: Ca2+/calmodulin-dependent protein kinase type-II δ (CaMK-IIδ) (from UniProt Q13557 1-499) (enzyme)

binding [1]: binds
Molecule: FYN (from UniProt P06241 1-537) (enzyme)

binding [1]: binds
Molecule: UDP-glucose:glycoprotein glucosyltransferase 1 (UGGT1) (from UniProt Q9NYU2 43-1555) (enzyme)

binding [1]: binds
Molecule: calnexin (CANX) (from UniProt P27824 21-592)

binding [3]: binds
Molecule: zebrafish CRK

binding [3]: binds
Molecule: zebrafish CRKL

binding [3]: binds
Molecule: zebrafish CaMKII γ subunit (enzyme)

binding [3]: binds
Molecule: zebrafish CaMKIIδ (enzyme)

binding [4]: binds
B1: E3-independent E2 ubiquitin-conjugating enzyme (UBE2O) (enzyme, UniProt Q9C0C9 1-1292)
chain: MADPAAPTPAAPAPAQAPAPAPEAVPAPAAAPVPAPAPASDSASGPSSDSGPEAGSQRLLFSHDLVSGRYRGSVHFGLVRLIHGEDSDSEGEEEGRGSSGCSEAGGAGHEEGRASPLRRGYVRVQWYPEGVKQHVKETKLKLEDRSVVPRDVVRHMRSTDSQCGTVIDVNIDCAVKLIGTNCIIYPVNSKDLQHIWPFMYGDYIAYDCWLGKVYDLKNQIILKLSNGARCSMNTEDGAKLYDVCPHVSDSGLFFDDSYGFYPGQVLIGPAKIFSSVQWLSGVKPVLSTKSKFRVVVEEVQVVELKVTWITKSFCPGGTDSVSPPPSVITQENLGRVKRLGCFDHAQRQLGERCLYVFPAKVEPAKIAWECPEKNCAQGEGSMAKKVKRLLKKQVVRIMSCSPDTQCSRDHSMEDPDKKGESKTKSEAESASPEETPDGSASPVEMQDEGAEEPHEAGEQLPPFLLKEGRDDRLHSAEQDADDEAADDTDDTSSVTSSASSTTSSQSGSGTSRKKSIPLSIKNLKRKHKRKKNKITRDFKPGDRVAVEVVTTMTSADVMWQDGSVECNIRSNDLFPVHHLDNNEFCPGDFVVDKRVQSCPDPAVYGVVQSGDHIGRTCMVKWFKLRPSGDDVELIGEEEDVSVYDIADHPDFRFRTTDIVIRIGNTEDGAPHKEDEPSVGQVARVDVSSKVEVVWADNSKTIILPQHLYNIESEIEESDYDSVEGSTSGASSDEWEDDSDSWETDNGLVEDEHPKIEEPPIPPLEQPVAPEDKGVVISEEAATAAVQGAVAMAAPMAGLMEKAGKDGPPKSFRELKEAIKILESLKNMTVEQLLTGSPTSPTVEPEKPTREKKFLDDIKKLQENLKKTLDNVAIVEEEKMEAVPDVERKEDKPEGQSPVKAEWPSETPVLCQQCGGKPGVTFTSAKGEVFSVLEFAPSNHSFKKIEFQPPEAKKFFSTVRKEMALLATSLPEGIMVKTFEDRMDLFSALIKGPTRTPYEDGLYLFDIQLPNIYPAVPPHFCYLSQCSGRLNPNLYDNGKVCVSLLGTWIGKGTERWTSKSSLLQVLISIQGLILVNEPYYNEAGFDSDRGLQEGYENSRCYNEMALIRVVQSMTQLVRRPPEVFEQEIRQHFSTGGWRLVNRIESWLETHALLEKAQALPNGVPKASSSPEPPAVAELSDSGQQEPEDGGPAPGEASQGSDSEGGAQGLASASRDHTDQTSETAPDASVPPSVKPKKRRKSYRSFLPEKSGYPDIGFPLFPLSKGFIKSIRGVLTQFRAALLEAGMPECTEDK

binding [5]: binds
B2: neutral α-glucosidase (GANAB) (enzyme, UniProt Q14697 29-944)
chain: ITLAVDRSNFKTCEESSFCKRQRSIRPGLSPYRALLDSLQLGPDSLTVHLIHEVTKVLLVLELQGLQKNMTRFRIDELEPRRPRYRVPDVLVADPPIARLSVSGRDENSVELTMAEGPYKIILTARPFRLDLLEDRSLLLSVNARGLLEFEHQRAPRVSQGSKDPAEGDGAQPEETPRDGDKPEETQGKAEKDEPGAWEETFKTHSDSKPYGPMSVGLDFSLPGMEHVYGIPEHADNLRLKVTEGGEPYRLYNLDVFQYELYNPMALYGSVPVLLAHNPHRDLGIFWLNAAETWVDISSNTAGKTLFGKMMDYLQGSGETPQTDVRWMSETGIIDVFLLLGPSISDVFRQYASLTGTQALPPLFSLGYHQSRWNYRDEADVLEVDQGFDDHNLPCDVIWLDIEHADGKRYFTWDPSRFPQPRTMLERLASKRRKLVAIVDPHIKVDSGYRVHEELRNLGLYVKTRDGSDYEGWCWPGSAGYPDFTNPTMRAWWANMFSYDNYEGSAPNLFVWNDMNEPSVFNGPEVTMLKDAQHYGGWEHRDVHNIYGLYVHMATADGLRQRSGGMERPFVLARAFFAGSQRFGAVWTGDNTAEWDHLKISIPMCLSLGLVGLSFCGADVGGFFKNPEPELLVRWYQMGAYQPFFRAHAHLDTGRREPWLLPSQHNDIIRDALGQRYSLLPFWYTLLYQAHREGIPVMRPLWVQYPQDVTTFNIDDQYLLGDALLVHPVSDSGAHGVQVYLPGQGEVWYDIQSYQKHHGPQTLYLPVTLSSIPVFQRGGTIVPRWMRVRRSSECMKDDPITLFVALSPQGTAQGELFLDDGHTFNYQTRQEFLLRRFSFSGNTLVSSSADPEGHFETPIWIERVVIIGAGKPAAVVLQTKGSPESRLSFQHDPETSVLVLRKPGINVASDWSIHLR
